In patent US7794835B2, “Fixing solution, capsule structure, fixing method, fixing device and image forming apparatus” (Ricoh Company, Ltd., priority 2004, dated 2010):

Assay: odor index by Triangle Odor Bag Method for Odor Sensory Measurement
Set-up: species or system humans
Conditions: softener (solute) alone

Row | Compound | odor index of the softener
1 | CCCCOC(=O)CCCCCCCCC(=O)OCCCC [dibutylsebacate] | 3
2 | CCCCCCCCCCCC(=O)OCC [ethyl laureate] | 13
3 | CC(C)COC(=O)CCCCC(=O)OCC(C)C [diisobutyladipate] | 1
4 | CCCCCCCCCCCCCC(=O)OC(C)C [isopropylmyristate] | 0
5 | CCOCCOC(=O)CCC(=O)OCCOCC [diethoxy ethyl succinate] | 1
6 | CCCCCCCC(=O)OC [methylcaprylate, reference compound] | 13
7 | CCCCCCCCCCCC(=O)OCCCCCC [hexyl laureate] | 1

Same assay, conditions: softener (solute) alone; listed as ethyllaurate

Row | Compound | odor index of the softener
8 | CCCCCCCCCCCC(=O)OCC [ethyl laureate] | 3

Same assay, conditions: softener (solute) alone; listed as isobutyladipate

Row | Compound | odor index of the softener
9 | CC(C)COC(=O)CCCCC(=O)OCC(C)C [diisobutyladipate] | 3

Same assay, conditions: solvent part of the fixing solution

Row | Compound | odor index of the solution
10 | CCCCCC [n-hexane] | 0
11 | O [water] | 0
12 | dimethylsiloxane | 0
